Source: publication PMC4275582
No constants are given. Whether binding was seen depends on the method and setting. In cells and extracts the contact can be indirect. These calls come from enrichment with a bait or labelling near it, and not all partners need be listed. Sequences can lack the tags named with a protein.

Sequences of proteins named here, by UniProt entry; tags and fusion partners are left off.
UniProt Q9Y265: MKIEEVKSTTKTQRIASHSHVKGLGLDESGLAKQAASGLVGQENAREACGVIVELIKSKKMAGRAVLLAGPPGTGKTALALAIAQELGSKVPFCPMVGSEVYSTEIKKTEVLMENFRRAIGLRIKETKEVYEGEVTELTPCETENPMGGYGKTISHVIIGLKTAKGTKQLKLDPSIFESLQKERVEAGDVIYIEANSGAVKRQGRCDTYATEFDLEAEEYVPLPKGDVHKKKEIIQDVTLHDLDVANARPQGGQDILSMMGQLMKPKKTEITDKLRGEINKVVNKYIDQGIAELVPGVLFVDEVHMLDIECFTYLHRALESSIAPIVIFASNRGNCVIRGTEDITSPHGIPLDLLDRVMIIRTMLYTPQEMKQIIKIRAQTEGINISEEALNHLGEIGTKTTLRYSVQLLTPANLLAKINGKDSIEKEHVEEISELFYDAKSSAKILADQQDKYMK

Molecular target: T1, ITFG1-Myc (human LINKIN) (human) (UniProt Q8TB96)
T1 sequence: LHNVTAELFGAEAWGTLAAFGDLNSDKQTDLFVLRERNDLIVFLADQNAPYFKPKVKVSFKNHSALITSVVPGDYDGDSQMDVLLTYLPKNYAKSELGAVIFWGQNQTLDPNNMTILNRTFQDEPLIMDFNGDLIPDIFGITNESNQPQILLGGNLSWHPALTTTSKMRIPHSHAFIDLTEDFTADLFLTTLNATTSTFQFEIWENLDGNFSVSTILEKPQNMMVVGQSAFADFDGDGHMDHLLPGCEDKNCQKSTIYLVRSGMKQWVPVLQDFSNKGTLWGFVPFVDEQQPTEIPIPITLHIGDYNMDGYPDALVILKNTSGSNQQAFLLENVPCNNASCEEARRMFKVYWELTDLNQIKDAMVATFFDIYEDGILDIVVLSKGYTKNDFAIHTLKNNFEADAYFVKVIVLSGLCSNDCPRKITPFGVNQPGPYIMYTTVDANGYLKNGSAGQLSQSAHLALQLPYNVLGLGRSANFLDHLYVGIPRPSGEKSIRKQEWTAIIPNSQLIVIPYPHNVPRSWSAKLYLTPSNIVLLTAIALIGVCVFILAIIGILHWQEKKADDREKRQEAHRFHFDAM
Experiment: affinity purification with mass spectrometry; SILAC; Myc-beads immunoprecipitation from lysate of ITFG1-Myc-transfected HEK 293T cells (light) against non-transfected cells (heavy Arg6, Lys8); lysis buffer 50 mM HEPES pH 7.5, 70 mM KOAc, 5 mM Mg(OAc)2, 0.2% n-dodecyl-β-D-maltoside; 4°C, 1 hr; LC-MS/MS

| binding | Substance |
| --- | --- |
| binds | RUVBL1 (from UniProt Q9Y265 1-456) |
| binds | α-tubulin (human (endogenous in HEK 293T)) |
| binds | β-tubulin (human (endogenous in HEK 293T)) |
